This is an account of results in patent US20040052845A1, “Hydrogel-driven drug dosage form” (priority 2003, published 2004).

One may read the solubility as the dissolved amount per volume that the medium holds. A high value points to much dissolved substance.

For this data set the following is noted: pH 6.5.

SMILES strings stand for the structures. In brackets after ≈: the same amount, converted by molar mass.

Turning to `COC(=O)C1=C(C)NC(C)=C(C(=O)OC)C1c1ccccc1[N+](=O)[O-]` [Drug 4, nifedipine], the solubility is 26 µg/mL (≈ 75.1 µM).
